We go through three substances from paper PMC13086584.

Chains of the proteins cited; added tags and fusions are not shown.
UniProt Q13148: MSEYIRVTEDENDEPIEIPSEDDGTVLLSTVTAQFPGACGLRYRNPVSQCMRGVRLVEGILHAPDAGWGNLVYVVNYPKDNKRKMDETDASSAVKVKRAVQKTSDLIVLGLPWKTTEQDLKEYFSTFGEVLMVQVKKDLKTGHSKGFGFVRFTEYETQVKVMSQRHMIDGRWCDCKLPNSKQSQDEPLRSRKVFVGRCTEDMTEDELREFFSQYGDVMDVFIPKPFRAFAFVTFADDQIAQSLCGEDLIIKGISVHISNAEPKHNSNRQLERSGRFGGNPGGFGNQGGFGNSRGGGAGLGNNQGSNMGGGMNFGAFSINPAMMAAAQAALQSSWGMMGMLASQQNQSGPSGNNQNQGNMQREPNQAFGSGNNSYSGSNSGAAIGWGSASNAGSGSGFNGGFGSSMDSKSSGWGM
UniProt P35637: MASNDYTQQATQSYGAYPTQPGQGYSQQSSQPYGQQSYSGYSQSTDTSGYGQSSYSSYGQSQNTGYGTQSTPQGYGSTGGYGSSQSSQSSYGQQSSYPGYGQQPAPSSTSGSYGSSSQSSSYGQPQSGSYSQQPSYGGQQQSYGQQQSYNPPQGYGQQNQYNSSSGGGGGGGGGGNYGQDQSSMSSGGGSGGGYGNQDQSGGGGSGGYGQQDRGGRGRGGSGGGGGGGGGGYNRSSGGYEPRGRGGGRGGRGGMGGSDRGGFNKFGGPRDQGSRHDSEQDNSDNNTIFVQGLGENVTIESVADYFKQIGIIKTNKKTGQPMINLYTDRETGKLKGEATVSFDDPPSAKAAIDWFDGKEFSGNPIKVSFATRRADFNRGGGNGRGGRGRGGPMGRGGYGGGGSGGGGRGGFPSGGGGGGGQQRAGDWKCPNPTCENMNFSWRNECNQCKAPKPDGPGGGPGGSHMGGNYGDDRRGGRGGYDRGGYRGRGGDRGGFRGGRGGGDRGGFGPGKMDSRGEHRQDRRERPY

Test [1] has as its target TDP-43 GFP (wild type, full-length, N-terminal GFP) (UniProt Q13148). The experiment in a line: co-IP; HeLa cells expressing TDP-43 GFP variants, lysed in 1% TritonX-100–PBS; GFP-Trap beads 3 h at 4 °C; western blot. For orientation: A western blot detects proteins with antibodies after separation by electrophoresis.
The target in test [2] is FUS (endogenous, HeLa cells) (human (endogenous in HeLa)) (UniProt P35637). The experiment in a line: proximity ligation; PLA counted within SFPQ-labelled paraspeckles.
Test [3] has as its target full-length FUS (N-terminal GFP) (UniProt P35637). The experiment in a line: co-IP; FUS-KO SH-SY5Y cells expressing GFP-tagged FUS variants at a near-endogenous level, soluble extracts in 1% TritonX-100–PBS; GFP-Trap beads 3 h at 4 °C; western blot.

These are yes or no findings as the source states them, for the method shown. Binding seen in cells or lysates may run through a third protein. Some binding calls cover weakened binding; strength is not graded here.

“FUS (endogenous, HeLa cells) (from UniProt P35637 1-526)”: in test [1], the binding entry is listed as “binds weakly”.

With “TDP-43 (endogenous, HeLa cells) (from UniProt Q13148 1-414)”, the binding entry in test [2] is listed as “binds weakly”.

“TDP-43 (in FUS-KO SH-SY5Y cells) (from UniProt Q13148 1-414)”: the binding entry in test [3] was “binds”.
